Measurements from patent US8871713B2, “Formulations of growth hormone releasing factor (GRF) molecules with improved stability” (Theratechnologies Inc., priority 2013, dated 2014).
Entries after “also recorded” stand apart in the source; their conditions may differ. At least one peptide structure holds a part that was inferred or is arguable (an end, a ring closure or a residue).

Key:
[1] = tested on: GH secretion; assay: GH response in female Sprague-Dawley rats (plasma GH ELISA); format: in vivo; conditions: 10 μg/rat
Protocol: The reporter gene assay was performed on baby hamster kidney (BHK) cells stably expressing the human GRF receptor and a cAMP-inducible alkaline phosphatase reporter gene; the peptides were tested at concentrations from 1 pM to 10 μM. Acute GH response was measured in blood samples obtained from female rats that were injected with 10 μg/rat peptides in 5% mannitol.
Sprague-Dawley rats (female, 250-300 g) were obtained from Charles River Inc. The animals were kept in groups of 4 rats per cage and were maintained on standard laboratory chow in 12:12 light:dark cycle.
On the day of the experiment, the animals were anesthetized with 2.5% isoflurane. A mid-section opening was made in the neck to expose the carotid artery. The carotid artery was cannulated with polypropylene tube (PE-50) for blood withdrawal. […]
Rat plasma samples were thawed on ice, vortexed briefly to mix the contents and centrifuged at 9,000 RPM for 2 min at 4° C. GH levels were determined using the Rat/Mouse Growth Hormone ELISA kit from Millipore® (Cat. #EZRMGH-45K). […]
The standard curve was plotted using the 4-parameter logistic equation using GraphPad Prism™ software and was used to determine the GH concentration of plasma samples. The data were analyzed using one-way analysis of variance. […]

[2] = biological target: T1, human GRF receptor (Homo sapiens, UniProt Q02643); assay: Reporter gene assay in BHK cells (cAMP-inducible alkaline phosphatase); format: cell-based
T1 construct: expressed in transfected cells
T1 sequence (Q02643 23-423): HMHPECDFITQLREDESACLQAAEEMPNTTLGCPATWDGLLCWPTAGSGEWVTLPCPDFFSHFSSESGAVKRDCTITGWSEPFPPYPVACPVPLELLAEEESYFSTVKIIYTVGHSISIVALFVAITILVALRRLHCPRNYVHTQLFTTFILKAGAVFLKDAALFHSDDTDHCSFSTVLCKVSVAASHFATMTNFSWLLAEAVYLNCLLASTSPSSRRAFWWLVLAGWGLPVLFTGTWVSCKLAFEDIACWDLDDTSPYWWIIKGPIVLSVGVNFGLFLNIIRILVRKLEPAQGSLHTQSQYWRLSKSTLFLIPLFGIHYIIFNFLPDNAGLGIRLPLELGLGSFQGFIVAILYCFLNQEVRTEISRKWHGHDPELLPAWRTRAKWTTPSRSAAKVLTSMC

## CC/C=C/CC(=O)N[C@@H](Cc1ccc(O)cc1)C(=O)N[C@@H](C)C(=O)N[C@H]1CC(=O)N([C@@H](C)C(=O)N[C@H](C(=O)N[C@@H](Cc2ccccc2)C(=O)N[C@H](C(=O)N[C@@H](CC(N)=O)C(=O)N[C@@H](CO)C(=O)N[C@@H](Cc2ccc(O)cc2)C(=O)N[C@@H](CCCNC(=N)N)C(=O)N[C@@H](CCCCN)C(=O)N[C@H](C(=O)N[C@@H](CC(C)C)C(=O)NCC(=O)N[C@@H](CCC(N)=O)C(=O)N[C@@H](CC(C)C)C(=O)N[C@@H](CO)C(=O)N[C@@H](C)C(=O)N[C@@H](CCCNC(=N)N)C(=O)N[C@@H](CCCCN)C(=O)N[C@@H](CC(C)C)C(=O)N[C@@H](CC(C)C)C(=O)N[C@@H](CCC(N)=O)C(=O)N[C@@H](CC(=O)O)C(=O)N[C@H](C(=O)N[C@@H](CCSC)C(=O)N[C@@H](CO)C(=O)N[C@@H](CCCNC(=N)N)C(=O)N[C@@H](CCC(N)=O)C(=O)N[C@@H](CCC(N)=O)C(=O)NCC(=O)N[C@@H](CCC(=O)O)C(=O)N[C@@H](CO)C(=O)N[C@@H](CC(N)=O)C(=O)N[C@@H](CCC(N)=O)C(=O)N[C@@H](CCC(=O)O)C(=O)N[C@@H](CCCNC(=N)N)C(=O)NCC(=O)N[C@@H](C)C(=O)N[C@@H](CCCNC(=N)N)C(=O)N[C@@H](C)C(=O)N[C@@H](CCCNC(=N)N)C(=O)N[C@@H](CC(C)C)C(N)=O)[C@@H](C)CC)C(C)C)[C@@H](C)O)[C@@H](C)CC)C1=O [TH1063, Asu^3 tesamorelin]
[1]
  GH secretion in rats (in words): did not produce GH; also recorded: completely inactive; also recorded: did not stimulate GH secretion
[2]
  In vitro potency compared to TH9507 (in words): comparable to TH9507
[2]; 24 h
  SNR (signal to noise ratio): 21.3
